From publication PMC3905876
These are yes or no findings as the source states them, for the method shown. Binding seen in cells or lysates may run through a third protein. Some entries that bind do so weakly or less than the wild type. For some of these results: Sequences can lack the tags named with a protein.

Chains of the proteins cited; added tags and fusions are not shown.
UniProt O60244: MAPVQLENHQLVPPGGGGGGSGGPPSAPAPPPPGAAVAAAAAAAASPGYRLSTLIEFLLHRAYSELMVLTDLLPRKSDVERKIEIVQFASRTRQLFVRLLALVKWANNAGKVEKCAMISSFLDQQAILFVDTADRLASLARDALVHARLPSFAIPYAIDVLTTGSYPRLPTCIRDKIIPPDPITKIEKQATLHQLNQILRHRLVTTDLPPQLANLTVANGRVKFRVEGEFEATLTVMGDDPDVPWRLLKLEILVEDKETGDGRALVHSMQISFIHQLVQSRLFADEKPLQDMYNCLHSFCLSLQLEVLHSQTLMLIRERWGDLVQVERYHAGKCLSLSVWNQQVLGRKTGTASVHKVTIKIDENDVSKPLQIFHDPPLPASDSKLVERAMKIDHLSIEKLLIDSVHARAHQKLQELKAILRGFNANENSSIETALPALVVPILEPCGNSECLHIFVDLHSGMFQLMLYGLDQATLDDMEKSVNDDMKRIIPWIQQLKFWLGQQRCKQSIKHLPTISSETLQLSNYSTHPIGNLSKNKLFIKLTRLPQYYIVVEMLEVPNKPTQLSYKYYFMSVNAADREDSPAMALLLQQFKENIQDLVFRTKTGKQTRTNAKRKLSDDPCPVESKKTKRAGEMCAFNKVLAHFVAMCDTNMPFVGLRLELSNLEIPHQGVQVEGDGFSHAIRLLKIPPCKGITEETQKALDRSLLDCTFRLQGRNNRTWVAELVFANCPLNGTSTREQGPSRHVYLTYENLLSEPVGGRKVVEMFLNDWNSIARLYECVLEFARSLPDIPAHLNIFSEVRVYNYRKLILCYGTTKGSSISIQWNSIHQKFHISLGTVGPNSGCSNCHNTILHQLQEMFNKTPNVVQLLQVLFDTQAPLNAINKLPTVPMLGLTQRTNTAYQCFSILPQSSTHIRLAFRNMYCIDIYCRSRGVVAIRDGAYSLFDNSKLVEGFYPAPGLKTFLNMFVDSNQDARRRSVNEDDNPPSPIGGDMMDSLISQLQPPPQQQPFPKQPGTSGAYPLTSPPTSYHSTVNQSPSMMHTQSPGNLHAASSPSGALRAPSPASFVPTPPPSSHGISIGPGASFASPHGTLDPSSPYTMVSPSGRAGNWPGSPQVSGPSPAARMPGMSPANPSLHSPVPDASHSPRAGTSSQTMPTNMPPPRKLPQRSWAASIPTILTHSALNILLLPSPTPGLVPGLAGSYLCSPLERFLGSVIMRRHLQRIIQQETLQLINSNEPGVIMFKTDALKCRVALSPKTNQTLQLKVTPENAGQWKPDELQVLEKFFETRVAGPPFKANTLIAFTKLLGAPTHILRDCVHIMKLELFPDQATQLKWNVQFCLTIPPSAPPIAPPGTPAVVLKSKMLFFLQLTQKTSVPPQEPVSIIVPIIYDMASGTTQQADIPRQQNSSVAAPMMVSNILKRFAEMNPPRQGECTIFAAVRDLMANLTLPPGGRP
UniProt A2ABV5: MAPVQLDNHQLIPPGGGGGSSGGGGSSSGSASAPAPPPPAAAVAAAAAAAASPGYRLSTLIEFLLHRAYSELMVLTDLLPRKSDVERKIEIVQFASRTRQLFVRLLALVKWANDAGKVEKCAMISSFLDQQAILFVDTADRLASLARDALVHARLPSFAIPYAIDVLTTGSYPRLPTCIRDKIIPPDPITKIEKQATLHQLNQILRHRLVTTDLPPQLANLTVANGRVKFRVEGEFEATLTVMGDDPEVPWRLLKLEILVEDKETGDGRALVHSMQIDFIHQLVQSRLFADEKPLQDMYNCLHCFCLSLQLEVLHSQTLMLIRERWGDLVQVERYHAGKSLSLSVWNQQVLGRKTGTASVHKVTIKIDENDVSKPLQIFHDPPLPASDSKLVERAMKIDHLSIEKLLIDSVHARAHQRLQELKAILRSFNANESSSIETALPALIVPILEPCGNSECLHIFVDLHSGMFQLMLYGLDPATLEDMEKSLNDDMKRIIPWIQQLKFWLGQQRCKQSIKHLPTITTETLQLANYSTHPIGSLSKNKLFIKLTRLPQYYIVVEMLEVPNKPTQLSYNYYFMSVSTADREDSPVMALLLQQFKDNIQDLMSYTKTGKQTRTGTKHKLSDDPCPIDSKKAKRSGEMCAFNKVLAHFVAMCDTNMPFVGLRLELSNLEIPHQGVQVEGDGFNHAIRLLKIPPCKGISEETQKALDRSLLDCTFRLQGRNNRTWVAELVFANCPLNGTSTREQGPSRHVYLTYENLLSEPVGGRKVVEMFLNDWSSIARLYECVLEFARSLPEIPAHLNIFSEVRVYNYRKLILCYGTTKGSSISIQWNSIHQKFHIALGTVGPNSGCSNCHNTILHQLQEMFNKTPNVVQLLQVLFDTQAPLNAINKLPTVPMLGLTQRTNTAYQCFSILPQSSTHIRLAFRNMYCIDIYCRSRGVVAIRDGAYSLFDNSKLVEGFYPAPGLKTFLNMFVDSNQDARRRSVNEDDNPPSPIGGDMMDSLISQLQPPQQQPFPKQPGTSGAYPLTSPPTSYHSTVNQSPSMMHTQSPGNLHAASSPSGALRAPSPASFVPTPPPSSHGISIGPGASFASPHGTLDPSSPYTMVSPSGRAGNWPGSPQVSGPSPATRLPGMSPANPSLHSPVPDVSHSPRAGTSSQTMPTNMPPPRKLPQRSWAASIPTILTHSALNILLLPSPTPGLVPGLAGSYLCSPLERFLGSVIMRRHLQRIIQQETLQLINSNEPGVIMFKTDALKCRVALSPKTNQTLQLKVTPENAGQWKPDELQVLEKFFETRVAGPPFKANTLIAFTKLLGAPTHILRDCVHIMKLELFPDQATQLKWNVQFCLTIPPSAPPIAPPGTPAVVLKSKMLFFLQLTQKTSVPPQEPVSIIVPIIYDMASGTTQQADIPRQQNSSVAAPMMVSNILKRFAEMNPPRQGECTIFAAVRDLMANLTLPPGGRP
UniProt P49336: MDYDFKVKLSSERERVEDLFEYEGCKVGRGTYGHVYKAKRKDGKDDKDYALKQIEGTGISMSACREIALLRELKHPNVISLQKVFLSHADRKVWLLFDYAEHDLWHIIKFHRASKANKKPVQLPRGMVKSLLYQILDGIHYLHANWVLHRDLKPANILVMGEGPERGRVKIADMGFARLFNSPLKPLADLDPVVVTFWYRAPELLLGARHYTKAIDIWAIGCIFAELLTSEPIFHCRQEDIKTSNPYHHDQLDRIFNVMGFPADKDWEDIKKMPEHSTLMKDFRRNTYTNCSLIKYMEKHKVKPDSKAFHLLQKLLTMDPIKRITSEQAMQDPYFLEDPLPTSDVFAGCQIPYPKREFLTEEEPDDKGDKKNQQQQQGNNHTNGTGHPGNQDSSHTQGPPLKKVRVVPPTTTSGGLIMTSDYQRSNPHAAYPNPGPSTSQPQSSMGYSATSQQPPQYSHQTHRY

How the values were obtained:
[1] = target: MED14 (human (endogenous in HeLa)) (UniProt O60244); assay: co-IP; MED14 immunoprecipitates from lysates of serum-starved or TPA-stimulated HeLa cells, endogenous proteins; immunoblot
[2] = target: HA-tagged MED14 (human) (UniProt O60244); assay: co-IP; anti-HA immunoprecipitates from lysates of HEK293 cells transfected with tagged MED14 and Elk-1, serum-starved, EGF, or EGF after SB290190; immunoblot
[3] = target: HA-tagged MED14 (human) (UniProt O60244); assay: co-IP; anti-HA immunoprecipitates from the lysates left after the MED23 immunoprecipitation, HEK293 cells transfected with tagged MED14 and Elk-1, serum-starved or EGF-treated; immunoblot
[4] = target: MED14 (mouse, in MEFs) (mouse (endogenous in MEFs)) (UniProt A2ABV5); assay: co-IP; MED14 immunoprecipitates from lysates of MED23 wt and MED23-/- MEFs transfected with a vector for Elk-1 (serum-starved or TPA) or Elk-GFP; immunoblot
[5] = target: MED14 (human (endogenous in HeLa)) (UniProt O60244); assay: co-IP; endogenous proteins (Supplementary Figure S2c); cells not shown
[6] = target: CDK8 (human (endogenous in HeLa)) (UniProt P49336); assay: as above

| Binder | binding [1] | binding [2] | binding [3] | also measured |
| --- | --- | --- | --- | --- |
| Elk-1 (protein, UniProt P19419 1-428) MDPSVTLWQFLLQLLREQGNGHIISWTSRDGGEFKLVDAEEVARLWGLRKNKTNMNYDKLSRALRYYYDKNIIRKVSGQKFVYKFVSYPEVAGCSTEDCPPQPEVSVTSTMPNVAPAAIHAAPGDTVSGKPGTPKGAGMAGPGGLARSSRNEYMRSGLYSTFTIQSLQPQPPPHPRPAVVLPSAAPAGAAAPPSGSRSTSPSPLEACLEAEEAGLPLQVILTPPEAPNLKSEELNVEPGLGRALPPEVKVEGPKEELEVAGERGFVPETTKAEPEVPPQEGVPARLPAVVMDTAGQAGGHAASSPEISQPQKGRKPRDLELPLSPSLLGGPGPERTPGSGSGSGLQAPGPALTPSLLPTHTLTPVLLTPSSLPPSIHFWSTLSPIAPRSPAKLSFQFPSSGSAQVHIPSISVDGLSTPVVLSPGPQKP | binds |  |  |  |
| Elk-1 (expressed in MEFs) (protein, UniProt P19419 1-428) MDPSVTLWQFLLQLLREQGNGHIISWTSRDGGEFKLVDAEEVARLWGLRKNKTNMNYDKLSRALRYYYDKNIIRKVSGQKFVYKFVSYPEVAGCSTEDCPPQPEVSVTSTMPNVAPAAIHAAPGDTVSGKPGTPKGAGMAGPGGLARSSRNEYMRSGLYSTFTIQSLQPQPPPHPRPAVVLPSAAPAGAAAPPSGSRSTSPSPLEACLEAEEAGLPLQVILTPPEAPNLKSEELNVEPGLGRALPPEVKVEGPKEELEVAGERGFVPETTKAEPEVPPQEGVPARLPAVVMDTAGQAGGHAASSPEISQPQKGRKPRDLELPLSPSLLGGPGPERTPGSGSGSGLQAPGPALTPSLLPTHTLTPVLLTPSSLPPSIHFWSTLSPIAPRSPAKLSFQFPSSGSAQVHIPSISVDGLSTPVVLSPGPQKP |  |  |  | binding [4]: binds |
| Elk-GFP fusion protein (protein, UniProt P19419 1-428) MDPSVTLWQFLLQLLREQGNGHIISWTSRDGGEFKLVDAEEVARLWGLRKNKTNMNYDKLSRALRYYYDKNIIRKVSGQKFVYKFVSYPEVAGCSTEDCPPQPEVSVTSTMPNVAPAAIHAAPGDTVSGKPGTPKGAGMAGPGGLARSSRNEYMRSGLYSTFTIQSLQPQPPPHPRPAVVLPSAAPAGAAAPPSGSRSTSPSPLEACLEAEEAGLPLQVILTPPEAPNLKSEELNVEPGLGRALPPEVKVEGPKEELEVAGERGFVPETTKAEPEVPPQEGVPARLPAVVMDTAGQAGGHAASSPEISQPQKGRKPRDLELPLSPSLLGGPGPERTPGSGSGSGLQAPGPALTPSLLPTHTLTPVLLTPSSLPPSIHFWSTLSPIAPRSPAKLSFQFPSSGSAQVHIPSISVDGLSTPVVLSPGPQKP |  |  |  | binding [4]: binds |
| MED23 (protein, UniProt Q9ULK4 1-1368) METQLQSIFEEVVKTEVIEEAFPGMFMDTPEDEKTKLISCLGAFRQFWGGLSQESHEQCIQWIVKFIHGQHSPKRISFLYDCLAMAVETGLLPPRLVCESLINSDTLEWERTQLWALTFKLVRKIIGGVDYKGVRDLLKVILEKILTIPNTVSSAVVQQLLAAREVIAYILERNACLLPAYFAVTEIRKLYPEGKLPHWLLGNLVSDFVDTFRPTARINSICGRCSLLPVVNNSGAICNSWKLDPATLRFPLKGLLPYDKDLFEPQTALLRYVLEQPYSRDMVCNMLGLNKQHKQRCPVLEDQLVDLVVYAMERSETEEKFDDGGTSQLLWQHLSSQLIFFVLFQFASFPHMVLSLHQKLAGRGLIKGRDHLMWVLLQFISGSIQKNALADFLPVMKLFDLLYPEKEYIPVPDINKPQSTHAFAMTCIWIHLNRKAQNDNSKLQIPIPHSLRLHHEFLQQSLRNKSLQMNDYKIALLCNAYSTNSECFTLPMGALVETIYGNGIMRIPLPGTNCMASGSITPLPMNLLDSLTVHAKMSLIHSIATRVIKLAHAKSSVALAPALVETYSRLLVYMEIESLGIKGFISQLLPTVFKSHAWGILHTLLEMFSYRMHHIQPHYRVQLLSHLHTLAAVAQTNQNQLHLCVESTALRLITALGSSEVQPQFTRFLSDPKTVLSAESEELNRALILTLARATHVTDFFTGSDSIQGTWCKDILQTIMSFTPHNWASHTLSCFPGPLQAFFKQNNVPQESRFNLKKNVEEEYRKWKSMSNENDIITHFSMQGSPPLFLCLLWKMLLETDHINQIGYRVLERIGARALVAHVRTFADFLVYEFSTSAGGQQLNKCIEILNDMVWKYNIVTLDRLILCLAMRSHEGNEAQVCYFIIQLLLLKPNDFRNRVSDFVKENSPEHWLQNDWHTKHMNYHKKYPEKLYFEGLAEQVDPPVQIQSPYLPIYFGNVCLRFLPVFDIVIHRFLELLPVSKSLETLLDHLGGLYKFHDRPVTYLYNTLHYYEMHLRDRAFLKRKLVHAIIGSLKDNRPQGWCLSDTYLKCAMNAREENPWVPDDTYYCRLIGRLVDTMAGKSPGPFPNCDWRFNEFPNPAAHALHVTCVELMALAVSGKEVGNALLNVVLKSQPLVPRENITAWMNAIGLIITALPEPYWIVLHDRIVSVISSPSLTSETEWVGYPFRLFDFTACHQSYSEMSCSYTLALAHAVWHHSSIGQLSLIPKFLTEVLLPIVKTEFQLLYVYHLVGPFLQRFQQERTRCMIEIGVAFYDMLLNVDQCSTHLNYMDPICDFLYHMKYMFTGDSVKEQVEKIICNLKPALKLRLRFITHISKMEPAAVPPQAMNSGSPAPQSNQVPVSLPVTQ | binds |  |  | binding [5]: binds; binding [6]: binds |

Further lines, with some results ahead:

| binding [1] | binding [2] | binding [3] | Binder | also measured |
| --- | --- | --- | --- | --- |
|  | binds | binds | tagged Elk-1 (protein, UniProt P19419 1-428) MDPSVTLWQFLLQLLREQGNGHIISWTSRDGGEFKLVDAEEVARLWGLRKNKTNMNYDKLSRALRYYYDKNIIRKVSGQKFVYKFVSYPEVAGCSTEDCPPQPEVSVTSTMPNVAPAAIHAAPGDTVSGKPGTPKGAGMAGPGGLARSSRNEYMRSGLYSTFTIQSLQPQPPPHPRPAVVLPSAAPAGAAAPPSGSRSTSPSPLEACLEAEEAGLPLQVILTPPEAPNLKSEELNVEPGLGRALPPEVKVEGPKEELEVAGERGFVPETTKAEPEVPPQEGVPARLPAVVMDTAGQAGGHAASSPEISQPQKGRKPRDLELPLSPSLLGGPGPERTPGSGSGSGLQAPGPALTPSLLPTHTLTPVLLTPSSLPPSIHFWSTLSPIAPRSPAKLSFQFPSSGSAQVHIPSISVDGLSTPVVLSPGPQKP |  |
| binds |  |  | phospho-Elk-1 (protein, UniProt P19419 1-428, phosphorylated (detected with a phospho-Elk antibody; site not given)) MDPSVTLWQFLLQLLREQGNGHIISWTSRDGGEFKLVDAEEVARLWGLRKNKTNMNYDKLSRALRYYYDKNIIRKVSGQKFVYKFVSYPEVAGCSTEDCPPQPEVSVTSTMPNVAPAAIHAAPGDTVSGKPGTPKGAGMAGPGGLARSSRNEYMRSGLYSTFTIQSLQPQPPPHPRPAVVLPSAAPAGAAAPPSGSRSTSPSPLEACLEAEEAGLPLQVILTPPEAPNLKSEELNVEPGLGRALPPEVKVEGPKEELEVAGERGFVPETTKAEPEVPPQEGVPARLPAVVMDTAGQAGGHAASSPEISQPQKGRKPRDLELPLSPSLLGGPGPERTPGSGSGSGLQAPGPALTPSLLPTHTLTPVLLTPSSLPPSIHFWSTLSPIAPRSPAKLSFQFPSSGSAQVHIPSISVDGLSTPVVLSPGPQKP |  |
|  | binds | binds | tagged phospho-Elk-1 (protein, UniProt P19419 1-428, phosphorylated (detected with a phospho-Elk antibody; site not given)) MDPSVTLWQFLLQLLREQGNGHIISWTSRDGGEFKLVDAEEVARLWGLRKNKTNMNYDKLSRALRYYYDKNIIRKVSGQKFVYKFVSYPEVAGCSTEDCPPQPEVSVTSTMPNVAPAAIHAAPGDTVSGKPGTPKGAGMAGPGGLARSSRNEYMRSGLYSTFTIQSLQPQPPPHPRPAVVLPSAAPAGAAAPPSGSRSTSPSPLEACLEAEEAGLPLQVILTPPEAPNLKSEELNVEPGLGRALPPEVKVEGPKEELEVAGERGFVPETTKAEPEVPPQEGVPARLPAVVMDTAGQAGGHAASSPEISQPQKGRKPRDLELPLSPSLLGGPGPERTPGSGSGSGLQAPGPALTPSLLPTHTLTPVLLTPSSLPPSIHFWSTLSPIAPRSPAKLSFQFPSSGSAQVHIPSISVDGLSTPVVLSPGPQKP |  |
|  | binds | binds | MED23 (in HEK293 cells) (protein, UniProt Q9ULK4 1-1368) METQLQSIFEEVVKTEVIEEAFPGMFMDTPEDEKTKLISCLGAFRQFWGGLSQESHEQCIQWIVKFIHGQHSPKRISFLYDCLAMAVETGLLPPRLVCESLINSDTLEWERTQLWALTFKLVRKIIGGVDYKGVRDLLKVILEKILTIPNTVSSAVVQQLLAAREVIAYILERNACLLPAYFAVTEIRKLYPEGKLPHWLLGNLVSDFVDTFRPTARINSICGRCSLLPVVNNSGAICNSWKLDPATLRFPLKGLLPYDKDLFEPQTALLRYVLEQPYSRDMVCNMLGLNKQHKQRCPVLEDQLVDLVVYAMERSETEEKFDDGGTSQLLWQHLSSQLIFFVLFQFASFPHMVLSLHQKLAGRGLIKGRDHLMWVLLQFISGSIQKNALADFLPVMKLFDLLYPEKEYIPVPDINKPQSTHAFAMTCIWIHLNRKAQNDNSKLQIPIPHSLRLHHEFLQQSLRNKSLQMNDYKIALLCNAYSTNSECFTLPMGALVETIYGNGIMRIPLPGTNCMASGSITPLPMNLLDSLTVHAKMSLIHSIATRVIKLAHAKSSVALAPALVETYSRLLVYMEIESLGIKGFISQLLPTVFKSHAWGILHTLLEMFSYRMHHIQPHYRVQLLSHLHTLAAVAQTNQNQLHLCVESTALRLITALGSSEVQPQFTRFLSDPKTVLSAESEELNRALILTLARATHVTDFFTGSDSIQGTWCKDILQTIMSFTPHNWASHTLSCFPGPLQAFFKQNNVPQESRFNLKKNVEEEYRKWKSMSNENDIITHFSMQGSPPLFLCLLWKMLLETDHINQIGYRVLERIGARALVAHVRTFADFLVYEFSTSAGGQQLNKCIEILNDMVWKYNIVTLDRLILCLAMRSHEGNEAQVCYFIIQLLLLKPNDFRNRVSDFVKENSPEHWLQNDWHTKHMNYHKKYPEKLYFEGLAEQVDPPVQIQSPYLPIYFGNVCLRFLPVFDIVIHRFLELLPVSKSLETLLDHLGGLYKFHDRPVTYLYNTLHYYEMHLRDRAFLKRKLVHAIIGSLKDNRPQGWCLSDTYLKCAMNAREENPWVPDDTYYCRLIGRLVDTMAGKSPGPFPNCDWRFNEFPNPAAHALHVTCVELMALAVSGKEVGNALLNVVLKSQPLVPRENITAWMNAIGLIITALPEPYWIVLHDRIVSVISSPSLTSETEWVGYPFRLFDFTACHQSYSEMSCSYTLALAHAVWHHSSIGQLSLIPKFLTEVLLPIVKTEFQLLYVYHLVGPFLQRFQQERTRCMIEIGVAFYDMLLNVDQCSTHLNYMDPICDFLYHMKYMFTGDSVKEQVEKIICNLKPALKLRLRFITHISKMEPAAVPPQAMNSGSPAPQSNQVPVSLPVTQ |  |
